± gives the standard deviation of the averaged measurements. This is one part of the list.
Compound: Nc1nc2c(ncn2[C@@H]2O[C@H](COP(=O)(O)OP(=O)(O)OP(=O)(O)O)[C@@H](O)[C@H]2O)c(=O)[nH]1 [guanosine triphosphate]
Assay: NP40-soluble protein abundance relative to vehicle (solubility fold change) (ratio); higher = more soluble protein in presence of GTP
In short: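 In three independent experiments, Jurkat crude lysate made by Dounce homogenisation was treated for 10 min at room temperature and then 3 min at 37 °C with eight concentrations ranging from 0.1 to 10 mM. It was then solubilised with 0.8% NP40 plus benzonase for 60 min at 4 °C and ultracentrifuged. The supernatant was TMT-labelled for LC-MS/MS, and each value is the fold change against the detergent-processed vehicle for the same replicate, using vsn-normalised intensities.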

The chains behind the UniProt entries cited, without tags or fusion partners. Where a name states a change or a piece, a line headed by the entry shows the natural chain unless it says otherwise.
UniProt P09651: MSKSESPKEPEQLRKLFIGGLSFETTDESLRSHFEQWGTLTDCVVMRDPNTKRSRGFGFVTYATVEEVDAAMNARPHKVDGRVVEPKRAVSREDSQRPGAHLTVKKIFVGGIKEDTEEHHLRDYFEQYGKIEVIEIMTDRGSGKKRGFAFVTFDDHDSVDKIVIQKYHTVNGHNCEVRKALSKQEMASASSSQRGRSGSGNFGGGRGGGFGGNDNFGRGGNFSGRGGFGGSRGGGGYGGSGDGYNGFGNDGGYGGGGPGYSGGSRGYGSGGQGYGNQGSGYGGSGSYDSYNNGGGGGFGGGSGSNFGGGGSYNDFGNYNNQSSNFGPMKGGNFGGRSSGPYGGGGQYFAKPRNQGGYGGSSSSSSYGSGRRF
UniProt P07741: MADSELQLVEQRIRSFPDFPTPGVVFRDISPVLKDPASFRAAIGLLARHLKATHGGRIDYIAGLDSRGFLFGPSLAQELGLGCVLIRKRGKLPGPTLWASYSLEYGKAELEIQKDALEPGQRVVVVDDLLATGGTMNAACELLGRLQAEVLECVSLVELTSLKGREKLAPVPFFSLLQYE
UniProt P15531, whole entry, looked up: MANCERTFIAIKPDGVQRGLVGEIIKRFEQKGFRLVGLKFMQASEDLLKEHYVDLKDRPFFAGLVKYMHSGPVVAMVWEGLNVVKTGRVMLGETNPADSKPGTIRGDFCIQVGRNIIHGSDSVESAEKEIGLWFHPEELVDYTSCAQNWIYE
UniProt P22392, whole entry, looked up: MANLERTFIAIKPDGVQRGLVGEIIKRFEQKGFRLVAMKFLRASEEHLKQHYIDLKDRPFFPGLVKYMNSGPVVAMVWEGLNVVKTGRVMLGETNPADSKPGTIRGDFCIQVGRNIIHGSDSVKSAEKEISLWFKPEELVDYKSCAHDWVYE
UniProt P23511, whole entry: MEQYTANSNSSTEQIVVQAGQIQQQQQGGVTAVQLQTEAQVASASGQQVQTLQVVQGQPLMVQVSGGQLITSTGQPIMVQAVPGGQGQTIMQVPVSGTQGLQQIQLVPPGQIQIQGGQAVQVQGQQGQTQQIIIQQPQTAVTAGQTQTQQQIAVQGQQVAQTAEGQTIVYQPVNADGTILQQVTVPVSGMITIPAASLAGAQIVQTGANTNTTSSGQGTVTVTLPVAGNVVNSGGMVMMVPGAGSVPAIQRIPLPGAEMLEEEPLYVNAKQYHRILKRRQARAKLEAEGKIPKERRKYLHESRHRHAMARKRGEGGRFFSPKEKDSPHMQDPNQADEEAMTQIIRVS
UniProt P08134, whole entry: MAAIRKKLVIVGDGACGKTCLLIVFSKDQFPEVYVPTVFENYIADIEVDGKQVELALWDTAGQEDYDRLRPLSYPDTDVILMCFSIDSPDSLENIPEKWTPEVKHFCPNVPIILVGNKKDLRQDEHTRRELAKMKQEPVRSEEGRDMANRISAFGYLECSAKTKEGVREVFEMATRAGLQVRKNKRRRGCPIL
UniProt P07437, whole entry: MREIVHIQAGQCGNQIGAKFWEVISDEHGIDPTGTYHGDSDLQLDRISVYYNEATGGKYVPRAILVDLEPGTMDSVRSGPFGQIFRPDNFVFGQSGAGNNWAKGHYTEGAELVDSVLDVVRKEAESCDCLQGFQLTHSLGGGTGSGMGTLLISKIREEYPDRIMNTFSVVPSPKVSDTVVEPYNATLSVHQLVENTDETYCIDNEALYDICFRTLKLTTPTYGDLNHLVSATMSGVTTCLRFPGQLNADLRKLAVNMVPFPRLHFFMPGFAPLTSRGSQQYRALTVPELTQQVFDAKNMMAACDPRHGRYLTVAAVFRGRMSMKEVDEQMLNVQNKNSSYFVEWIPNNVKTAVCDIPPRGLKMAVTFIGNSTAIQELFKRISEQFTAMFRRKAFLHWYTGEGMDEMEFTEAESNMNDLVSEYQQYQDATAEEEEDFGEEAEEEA
UniProt P13984, whole entry: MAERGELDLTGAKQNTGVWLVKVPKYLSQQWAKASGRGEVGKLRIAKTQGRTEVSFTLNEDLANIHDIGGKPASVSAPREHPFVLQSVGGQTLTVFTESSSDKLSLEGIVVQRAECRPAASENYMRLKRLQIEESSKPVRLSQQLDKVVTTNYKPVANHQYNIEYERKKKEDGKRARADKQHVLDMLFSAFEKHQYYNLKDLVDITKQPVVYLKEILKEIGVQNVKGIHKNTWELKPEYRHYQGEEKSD
UniProt P11717, whole entry: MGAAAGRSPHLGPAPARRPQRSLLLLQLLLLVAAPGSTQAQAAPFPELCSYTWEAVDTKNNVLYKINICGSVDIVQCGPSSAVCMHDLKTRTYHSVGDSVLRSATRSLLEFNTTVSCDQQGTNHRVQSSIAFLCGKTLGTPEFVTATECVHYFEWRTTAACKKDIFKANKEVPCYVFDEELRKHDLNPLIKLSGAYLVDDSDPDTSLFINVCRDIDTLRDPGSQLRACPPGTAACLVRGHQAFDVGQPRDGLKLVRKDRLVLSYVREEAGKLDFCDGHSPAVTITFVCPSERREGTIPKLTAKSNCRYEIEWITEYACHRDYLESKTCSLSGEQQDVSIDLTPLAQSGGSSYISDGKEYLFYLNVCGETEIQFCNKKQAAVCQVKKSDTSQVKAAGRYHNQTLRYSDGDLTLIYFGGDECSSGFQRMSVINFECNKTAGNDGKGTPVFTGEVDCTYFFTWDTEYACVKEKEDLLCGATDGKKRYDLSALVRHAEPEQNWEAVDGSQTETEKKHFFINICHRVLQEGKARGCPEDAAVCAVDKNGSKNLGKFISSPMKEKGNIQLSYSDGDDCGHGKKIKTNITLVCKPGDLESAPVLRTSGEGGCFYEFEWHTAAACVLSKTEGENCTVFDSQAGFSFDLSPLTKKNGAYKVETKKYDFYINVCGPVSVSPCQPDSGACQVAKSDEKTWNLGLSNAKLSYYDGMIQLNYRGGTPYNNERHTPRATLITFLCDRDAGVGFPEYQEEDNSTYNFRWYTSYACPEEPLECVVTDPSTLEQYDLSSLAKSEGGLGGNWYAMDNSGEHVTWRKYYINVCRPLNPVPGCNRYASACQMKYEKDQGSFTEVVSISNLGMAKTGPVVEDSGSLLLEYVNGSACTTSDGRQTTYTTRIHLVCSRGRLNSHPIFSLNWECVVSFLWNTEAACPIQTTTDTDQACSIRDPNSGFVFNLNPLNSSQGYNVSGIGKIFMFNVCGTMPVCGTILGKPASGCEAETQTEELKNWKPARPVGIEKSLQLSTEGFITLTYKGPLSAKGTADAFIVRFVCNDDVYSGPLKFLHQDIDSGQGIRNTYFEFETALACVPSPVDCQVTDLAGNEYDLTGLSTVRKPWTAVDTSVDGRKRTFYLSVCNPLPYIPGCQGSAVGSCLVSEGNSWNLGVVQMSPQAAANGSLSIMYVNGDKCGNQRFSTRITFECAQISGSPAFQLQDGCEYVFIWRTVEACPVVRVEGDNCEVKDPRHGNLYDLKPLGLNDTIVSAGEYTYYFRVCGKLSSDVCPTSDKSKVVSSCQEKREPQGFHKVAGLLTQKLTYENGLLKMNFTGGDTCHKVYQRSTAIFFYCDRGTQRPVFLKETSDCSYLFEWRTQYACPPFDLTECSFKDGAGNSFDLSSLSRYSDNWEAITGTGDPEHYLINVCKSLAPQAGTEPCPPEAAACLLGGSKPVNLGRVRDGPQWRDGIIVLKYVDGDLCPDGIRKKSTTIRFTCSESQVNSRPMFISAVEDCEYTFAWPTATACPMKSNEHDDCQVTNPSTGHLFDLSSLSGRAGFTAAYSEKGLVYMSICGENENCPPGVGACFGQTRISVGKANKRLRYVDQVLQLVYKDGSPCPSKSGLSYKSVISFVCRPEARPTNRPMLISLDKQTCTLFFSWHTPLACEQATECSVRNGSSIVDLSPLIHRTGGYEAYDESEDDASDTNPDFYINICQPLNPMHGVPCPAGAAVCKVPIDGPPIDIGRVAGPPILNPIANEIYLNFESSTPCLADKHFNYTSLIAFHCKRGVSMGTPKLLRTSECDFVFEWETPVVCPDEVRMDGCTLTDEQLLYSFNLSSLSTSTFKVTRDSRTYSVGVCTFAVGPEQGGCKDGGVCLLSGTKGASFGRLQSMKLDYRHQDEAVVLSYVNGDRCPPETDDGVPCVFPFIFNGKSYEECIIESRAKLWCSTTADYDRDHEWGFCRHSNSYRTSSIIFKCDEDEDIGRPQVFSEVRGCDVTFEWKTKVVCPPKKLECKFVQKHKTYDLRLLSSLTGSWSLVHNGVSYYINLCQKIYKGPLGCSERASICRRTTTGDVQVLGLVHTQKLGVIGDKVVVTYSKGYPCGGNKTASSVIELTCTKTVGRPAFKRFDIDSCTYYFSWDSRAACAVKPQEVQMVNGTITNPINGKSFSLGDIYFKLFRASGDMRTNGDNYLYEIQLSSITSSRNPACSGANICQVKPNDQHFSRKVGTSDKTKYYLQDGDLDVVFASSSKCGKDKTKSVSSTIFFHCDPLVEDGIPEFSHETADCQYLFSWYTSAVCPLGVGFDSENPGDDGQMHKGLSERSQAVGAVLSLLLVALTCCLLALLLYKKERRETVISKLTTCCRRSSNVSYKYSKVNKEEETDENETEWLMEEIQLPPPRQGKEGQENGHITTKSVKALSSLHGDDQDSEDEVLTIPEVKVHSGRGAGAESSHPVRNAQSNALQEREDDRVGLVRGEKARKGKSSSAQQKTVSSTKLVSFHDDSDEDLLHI
UniProt P23025: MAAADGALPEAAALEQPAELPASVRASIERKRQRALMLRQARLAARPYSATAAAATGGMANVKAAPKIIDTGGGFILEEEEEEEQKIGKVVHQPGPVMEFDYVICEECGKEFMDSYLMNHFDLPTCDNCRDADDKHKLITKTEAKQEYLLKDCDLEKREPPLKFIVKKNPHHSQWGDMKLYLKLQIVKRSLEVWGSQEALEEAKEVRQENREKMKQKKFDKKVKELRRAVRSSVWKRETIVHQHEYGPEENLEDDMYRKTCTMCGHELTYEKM
UniProt P25445, whole entry: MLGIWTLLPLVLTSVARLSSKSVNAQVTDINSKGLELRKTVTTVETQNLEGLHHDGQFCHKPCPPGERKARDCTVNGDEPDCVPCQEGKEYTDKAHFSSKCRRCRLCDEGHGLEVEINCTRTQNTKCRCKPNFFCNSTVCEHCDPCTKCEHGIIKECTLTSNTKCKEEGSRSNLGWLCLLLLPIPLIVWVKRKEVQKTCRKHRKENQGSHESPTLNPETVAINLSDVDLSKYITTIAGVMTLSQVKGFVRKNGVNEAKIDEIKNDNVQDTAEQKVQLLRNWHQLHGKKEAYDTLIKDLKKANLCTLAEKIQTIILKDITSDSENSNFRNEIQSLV
UniProt P18859: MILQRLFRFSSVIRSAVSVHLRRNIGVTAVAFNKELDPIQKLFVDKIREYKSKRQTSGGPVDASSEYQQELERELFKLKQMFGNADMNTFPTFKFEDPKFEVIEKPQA
UniProt P09132: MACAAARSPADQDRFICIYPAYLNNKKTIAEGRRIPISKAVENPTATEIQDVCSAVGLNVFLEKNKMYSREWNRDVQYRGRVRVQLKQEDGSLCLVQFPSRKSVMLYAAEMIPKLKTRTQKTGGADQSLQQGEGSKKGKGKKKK
UniProt P14854, whole entry: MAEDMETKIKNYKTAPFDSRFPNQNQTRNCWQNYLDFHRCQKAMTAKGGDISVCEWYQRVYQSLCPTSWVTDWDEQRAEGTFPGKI
UniProt P14550: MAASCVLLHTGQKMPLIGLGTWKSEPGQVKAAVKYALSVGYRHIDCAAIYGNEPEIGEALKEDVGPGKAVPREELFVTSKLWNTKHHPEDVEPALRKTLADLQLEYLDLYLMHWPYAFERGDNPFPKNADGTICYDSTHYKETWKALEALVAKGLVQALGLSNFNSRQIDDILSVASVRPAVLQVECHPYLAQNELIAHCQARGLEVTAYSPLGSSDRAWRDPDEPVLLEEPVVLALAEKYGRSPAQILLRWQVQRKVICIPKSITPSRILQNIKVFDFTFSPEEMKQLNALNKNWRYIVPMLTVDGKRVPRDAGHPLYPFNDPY
UniProt P17029: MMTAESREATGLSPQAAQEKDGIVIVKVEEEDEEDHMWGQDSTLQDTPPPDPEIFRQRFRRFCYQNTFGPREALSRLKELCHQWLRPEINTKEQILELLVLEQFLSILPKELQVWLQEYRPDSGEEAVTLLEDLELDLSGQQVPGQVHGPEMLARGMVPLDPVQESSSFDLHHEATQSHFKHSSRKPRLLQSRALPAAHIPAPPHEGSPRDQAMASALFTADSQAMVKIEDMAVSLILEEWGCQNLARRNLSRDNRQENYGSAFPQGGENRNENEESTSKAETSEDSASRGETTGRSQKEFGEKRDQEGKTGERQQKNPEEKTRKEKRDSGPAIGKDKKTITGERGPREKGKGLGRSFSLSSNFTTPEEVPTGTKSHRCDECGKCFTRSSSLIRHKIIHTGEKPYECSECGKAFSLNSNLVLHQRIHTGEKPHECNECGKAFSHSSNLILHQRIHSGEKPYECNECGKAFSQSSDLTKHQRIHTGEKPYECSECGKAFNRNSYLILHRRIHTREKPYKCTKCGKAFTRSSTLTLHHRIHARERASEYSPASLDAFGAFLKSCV
UniProt P23434: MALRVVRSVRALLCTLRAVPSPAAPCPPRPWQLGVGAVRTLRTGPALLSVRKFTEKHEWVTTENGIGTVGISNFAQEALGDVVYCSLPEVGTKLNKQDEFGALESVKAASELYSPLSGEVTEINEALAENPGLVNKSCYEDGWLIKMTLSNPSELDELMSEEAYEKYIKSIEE

Target	NP40-soluble protein abundance (concentration: 0.1mM)	NP40-soluble protein abundance (concentration: 0.5mM)	NP40-soluble protein abundance (concentration: 1mM)	NP40-soluble protein abundance (concentration: 2mM)	NP40-soluble protein abundance (concentration: 4mM)	NP40-soluble protein abundance (concentration: 6mM)	NP40-soluble protein abundance (concentration: 8mM)	NP40-soluble protein abundance (concentration: 10mM)
UniProt P09651 and related entries	1.03 ± 0.067	1.11 ± 0.082	1.17 ± 0.11	1.16 ± 0.065	1.16 ± 0.08	1.22 ± 0.089	1.3 ± 0.22	1.25 ± 0.16
CHM (UniProt P24386)	1.02 ± 0.072	1.03 ± 0.072	0.904 ± 0.011	0.895 ± 0.11	0.958 ± 0.046	0.94 ± 0.018	0.847 ± 0.069	0.875 ± 0.037
APRT (UniProt P07741)	0.949 ± 0.048	0.939 ± 0.076	0.787 ± 0.047	0.831 ± 0.068	0.816 ± 0.028	0.774 ± 0.042	0.681 ± 0.11	0.744 ± 0.1
UniProt P16383 and related entries	0.979 ± 0.015	1.05 ± 0.059	1.03 ± 0.038	1.06 ± 0.019	1.088 ± 0.0062	1.06 ± 0.0047	1.09 ± 0.032	1.11 ± 0.044
CTSB (UniProt P07858)	0.979 ± 0.036	1.01 ± 0.021	0.992 ± 0.029	0.954 ± 0.0097	0.962 ± 0.036	0.973 ± 0.011	0.983 ± 0.016	0.958 ± 0.03
P15531-2|P22392-2|Q32Q12 (UniProt Q32Q12+P22392+P15531)	0.983 ± 0.029	0.946 ± 0.049	0.903 ± 0.045	0.909 ± 0.068	0.9 ± 0.017	0.878 ± 0.04	0.822 ± 0.06	0.839 ± 0.025
UniProt P0CAP2 and related entries	1.04 ± 0.025	1.06 ± 0.022	1.12 ± 0.054	1.12 ± 0.041	1.12 ± 0.056	1.15 ± 0.062	1.19 ± 0.1	1.2 ± 0.097
UniProt P10586 and related entries	1.08 ± 0.12	1.06 ± 0.12	1.13 ± 0.14	1.03 ± 0.17	1.03 ± 0.2	0.993 ± 0.19	1.06 ± 0.16	1 ± 0.13
UniProt P22033	1.01 ± 0.036	1 ± 0.065	0.961 ± 0.031	0.93 ± 0.026	0.947 ± 0.024	0.926 ± 0.031	0.91 ± 0.023	0.902 ± 0.042
UniProt P23511 and related entries	1.05 ± 0.13	0.825 ± 0.081	0.928 ± 0.15	0.911 ± 0.14	0.882 ± 0.19	0.859 ± 0.13	0.898 ± 0.15	0.859 ± 0.12
UniProt P08134 and related entries	0.944 ± 0.077	1.04 ± 0.1	0.924 ± 0.14	0.956 ± 0.083	0.896 ± 0.11	0.93 ± 0.1	0.886 ± 0.14	0.929 ± 0.12
UniProt P07437	0.927 ± 0.16	0.961 ± 0.13	0.95 ± 0.15	0.937 ± 0.14	1.03 ± 0.23	0.914 ± 0.17	0.954 ± 0.15	0.934 ± 0.17
GTF2F2 (UniProt P13984)	0.962 ± 0.057	0.98 ± 0.033	0.961 ± 0.032	0.951 ± 0.028	0.95 ± 0.026	0.961 ± 0.022	0.963 ± 0.044	0.951 ± 0.045
UniProt P10636-2|P10636-6	0.877 ± 0.058	0.831 ± 0.063	1.05 ± 0.064	1.05 ± 0.14	0.974 ± 0.054	0.94 ± 0.047	0.935 ± 0.11	1.02 ± 0.019
IGF2R (UniProt P11717)	0.974 ± 0.043	0.978 ± 0.023	0.998 ± 0.034	0.99 ± 0.064	1.01 ± 0.059	1 ± 0.068	1.03 ± 0.071	1.02 ± 0.1
UniProt P23025 and related entries	1.07 ± 0.044	1.08 ± 0.049	1.21 ± 0.054	1.02 ± 0.1	1.05 ± 0.074	1.08 ± 0.14	1.12 ± 0.028	1.08 ± 0.097
ATXN1L (UniProt P0C7T5)	0.973 ± 0.13	0.911 ± 0.05	0.865 ± 0.064	0.896 ± 0.11	0.928 ± 0.037	0.977 ± 0.027	0.966 ± 0.1	0.882 ± 0.1
UniProt P08559 and related entries	1.04 ± 0.11	1.09 ± 0.15	1.05 ± 0.19	1.12 ± 0.22	1.17 ± 0.2	1.16 ± 0.24	1.14 ± 0.21	1.06 ± 0.2
DLAT (UniProt P10515)	1.11 ± 0.22	1.28 ± 0.39	1.47 ± 0.56	1.85 ± 0.82	2.12 ± 1.1	2.06 ± 1.1	1.98 ± 0.98	1.91 ± 0.99
UniProt P25445 and related entries	0.827 ± 0.14	0.819 ± 0.2	0.874 ± 0.16	0.856 ± 0.19	0.865 ± 0.2	0.854 ± 0.17	0.848 ± 0.16	0.89 ± 0.16
UniProt P18859 and related entries	0.997 ± 0.054	1.06 ± 0.094	1.09 ± 0.16	1.11 ± 0.15	1.03 ± 0.13	1.15 ± 0.14	1.15 ± 0.35	1.12 ± 0.26
UniProt P09132 and related entries	0.94 ± 0.04	0.938 ± 0.05	1.07 ± 0.055	1.1 ± 0.052	1.11 ± 0.047	1.15 ± 0.035	1.17 ± 0.055	1.2 ± 0.069
COX6B1 (UniProt P14854)	1.03 ± 0.11	0.994 ± 0.059	1.01 ± 0.097	1.06 ± 0.11	1.03 ± 0.15	1.02 ± 0.091	1.03 ± 0.045	1.17 ± 0.087
AKR1A1 (UniProt P14550)	0.93 ± 0.035	0.912 ± 0.034	0.888 ± 0.04	0.876 ± 0.037	0.873 ± 0.047	0.849 ± 0.04	0.831 ± 0.088	0.825 ± 0.08
PRKAR1A (UniProt P10644)	0.921 ± 0.039	0.968 ± 0.031	0.944 ± 0.052	0.929 ± 0.062	0.953 ± 0.071	0.935 ± 0.079	0.975 ± 0.098	0.934 ± 0.088
SP100 (UniProt P23497)	0.94 ± 0.066	0.917 ± 0.034	0.907 ± 0.041	0.882 ± 0.066	0.869 ± 0.056	0.888 ± 0.044	0.918 ± 0.059	0.927 ± 0.068
ZKSCAN1 (UniProt P17029)	0.9748 ± 0.0051	0.986 ± 0.034	0.987 ± 0.047	0.958 ± 0.024	0.963 ± 0.015	0.978 ± 0.026	1 ± 0.075	0.993 ± 0.041
ALDOC (UniProt P09972)	0.946 ± 0.082	0.954 ± 0.073	0.973 ± 0.079	0.954 ± 0.07	0.962 ± 0.061	0.936 ± 0.062	0.949 ± 0.06	0.954 ± 0.067
UniProt P08240	0.992 ± 0.025	1.018 ± 0.0088	0.997 ± 0.028	1.01 ± 0.026	1.02 ± 0.033	1.04 ± 0.039	1.05 ± 0.03	1.02 ± 0.057
GCSH (UniProt P23434)	0.91 ± 0.021	0.889 ± 0.088	0.958 ± 0.043	0.908 ± 0.097	0.866 ± 0.083	0.91 ± 0.12	0.908 ± 0.098	0.882 ± 0.048

A section from the list above, for reference:
Target	NP40-soluble protein abundance (concentration: 0.1mM)	NP40-soluble protein abundance (concentration: 0.5mM)	NP40-soluble protein abundance (concentration: 1mM)	NP40-soluble protein abundance (concentration: 2mM)	NP40-soluble protein abundance (concentration: 4mM)	NP40-soluble protein abundance (concentration: 6mM)	NP40-soluble protein abundance (concentration: 8mM)	NP40-soluble protein abundance (concentration: 10mM)
CHM (UniProt P24386)	1.02 ± 0.072	1.03 ± 0.072	0.904 ± 0.011	0.895 ± 0.11	0.958 ± 0.046	0.94 ± 0.018	0.847 ± 0.069	0.875 ± 0.037
APRT (UniProt P07741)	0.949 ± 0.048	0.939 ± 0.076	0.787 ± 0.047	0.831 ± 0.068	0.816 ± 0.028	0.774 ± 0.042	0.681 ± 0.11	0.744 ± 0.1
UniProt P16383 and related entries	0.979 ± 0.015	1.05 ± 0.059	1.03 ± 0.038	1.06 ± 0.019	1.088 ± 0.0062	1.06 ± 0.0047	1.09 ± 0.032	1.11 ± 0.044
CTSB (UniProt P07858)	0.979 ± 0.036	1.01 ± 0.021	0.992 ± 0.029	0.954 ± 0.0097	0.962 ± 0.036	0.973 ± 0.011	0.983 ± 0.016	0.958 ± 0.03
P15531-2|P22392-2|Q32Q12 (UniProt Q32Q12+P22392+P15531)	0.983 ± 0.029	0.946 ± 0.049	0.903 ± 0.045	0.909 ± 0.068	0.9 ± 0.017	0.878 ± 0.04	0.822 ± 0.06	0.839 ± 0.025
UniProt P0CAP2 and related entries	1.04 ± 0.025	1.06 ± 0.022	1.12 ± 0.054	1.12 ± 0.041	1.12 ± 0.056	1.15 ± 0.062	1.19 ± 0.1	1.2 ± 0.097

Reference: the supplement of paper PMC6411743
